In the test the target is T1, endogenous SYNPO (synaptopodin) of mature rat cortical neurons (rat (endogenous in primary cortical neurons)) (UniProt Q9Z327).
T1 sequence: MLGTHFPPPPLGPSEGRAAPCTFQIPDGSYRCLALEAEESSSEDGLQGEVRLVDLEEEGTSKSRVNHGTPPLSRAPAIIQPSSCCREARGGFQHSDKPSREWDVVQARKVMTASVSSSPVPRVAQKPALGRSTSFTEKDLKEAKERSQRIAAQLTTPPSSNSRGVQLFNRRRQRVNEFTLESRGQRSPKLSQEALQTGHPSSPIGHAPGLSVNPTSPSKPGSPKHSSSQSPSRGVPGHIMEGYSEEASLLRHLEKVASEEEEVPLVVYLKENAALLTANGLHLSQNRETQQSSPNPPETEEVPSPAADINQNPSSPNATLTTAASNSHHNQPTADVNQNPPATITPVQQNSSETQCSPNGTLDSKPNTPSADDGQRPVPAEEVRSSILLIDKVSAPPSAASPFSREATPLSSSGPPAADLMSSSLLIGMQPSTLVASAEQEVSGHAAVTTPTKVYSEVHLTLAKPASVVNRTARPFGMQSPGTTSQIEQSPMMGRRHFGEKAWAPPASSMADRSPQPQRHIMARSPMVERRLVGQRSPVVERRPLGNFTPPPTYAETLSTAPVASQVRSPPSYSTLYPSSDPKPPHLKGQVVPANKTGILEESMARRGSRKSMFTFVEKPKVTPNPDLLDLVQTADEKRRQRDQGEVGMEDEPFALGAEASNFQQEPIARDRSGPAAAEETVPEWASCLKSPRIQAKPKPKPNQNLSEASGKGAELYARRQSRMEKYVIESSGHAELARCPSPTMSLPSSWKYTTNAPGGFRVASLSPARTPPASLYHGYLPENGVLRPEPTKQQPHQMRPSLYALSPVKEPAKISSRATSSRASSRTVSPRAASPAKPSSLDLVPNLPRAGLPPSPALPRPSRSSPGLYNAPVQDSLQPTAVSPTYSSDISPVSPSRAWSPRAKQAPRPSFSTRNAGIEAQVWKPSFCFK
The experiment in a line: co-IP.

No constants are given. Whether binding was seen depends on the method and setting. Binding seen in cells or lysates may run through a third protein. Some results given as binding are weak or reduced against the parent protein; the word gives no strength.

With “endogenous SQSTM1/p62 (sequestosome 1) of mature rat cortical neurons (from UniProt O08623 1-439)”, the binding entry was “binds”.

Values taken from article doi:10.1101/518597.
